Test results reported in article PMC11320359.

Chains of the proteins cited; added tags and fusions are not shown. Lines headed by an entry give the natural chain unless they say otherwise; changes in a name come on top.
UniProt Q8K4Z2: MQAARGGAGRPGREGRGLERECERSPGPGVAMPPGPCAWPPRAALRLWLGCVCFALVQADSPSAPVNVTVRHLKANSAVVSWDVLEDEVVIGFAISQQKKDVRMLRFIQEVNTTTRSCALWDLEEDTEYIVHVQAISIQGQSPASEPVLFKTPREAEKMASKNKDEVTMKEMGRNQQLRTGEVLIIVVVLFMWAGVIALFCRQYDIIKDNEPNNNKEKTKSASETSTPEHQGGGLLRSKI
UniProt P49817: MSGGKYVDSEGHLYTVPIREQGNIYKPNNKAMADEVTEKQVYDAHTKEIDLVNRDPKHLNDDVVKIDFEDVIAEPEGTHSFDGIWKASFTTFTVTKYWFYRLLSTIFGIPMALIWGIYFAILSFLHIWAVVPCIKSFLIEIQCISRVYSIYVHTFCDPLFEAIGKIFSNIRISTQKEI

Legend:
[1] = target: Fibronectin Type III Domain Containing 5 / irisin (endogenous in osteoblasts) (mouse (endogenous in MC3T3-E1)) (UniProt Q8K4Z2); assay: co-IP; whole-cell lysates of osteoblasts (3 mg protein) with 4 ug primary antibody, overnight at 4°C, Proteintech kit PK10007; Western blot; endogenous proteins
[2] = target: GST-irisin recombinant protein (UniProt Q8K4Z2); assay: pull-down; GST-irisin held on GST magnetic beads; target protein added, 30 min at room temperature; binding buffer 140 mM NaCl, 2.7 mM KCl, 10 mM Na2HPO4, 1.8 mM KH2PO4, pH 7.4; eluted with 10 mM reduced glutathione; Western blot for Cav1; GST as negative control; only the target purified
[3] = target: Fibronectin Type III Domain Containing 5 / irisin (endogenous in osteoblasts) (mouse (endogenous in MC3T3-E1)) (UniProt Q8K4Z2); assay: co-IP; whole-cell lysates of osteoblasts (3 mg protein) with 4 ug primary antibody, overnight at 4°C, Proteintech kit PK10007; Western blot; endogenous proteins; remark: listed apart in the source

- binding [1]: binds
Molecule: Caveolin 1 (endogenous in osteoblasts) (from UniProt P49817 1-178)

- binding [2]: binds
Molecule: Caveolin 1 (prey of the GST-irisin pull-down) (from UniProt P49817 1-178)

- binding [3]: binds weakly
B1: Heme oxygenase 1 (endogenous in osteoblasts) (enzyme, UniProt P14901 1-289)
chain: MERPQPDSMPQDLSEALKEATKEVHIQAENAEFMKNFQKGQVSREGFKLVMASLYHIYTALEEEIERNKQNPVYAPLYFPEELHRRAALEQDMAFWYGPHWQEIIPCTPATQHYVKRLHEVGRTHPELLVAHAYTRYLGDLSGGQVLKKIAQKAMALPSSGEGLAFFTFPNIDSPTKFKQLYRARMNTLEMTPEVKHRVTEEAKTAFLLNIELFEELQVMLTEEHKDQSPSQMASLRQRPASLVQDTAPAETPRGKPQISTSSSQTPLLQWVLTLSFLLATVAVGIYAM

Read-outs that look alike come from different tables or passages of the source. Results are given in words; binding and its absence hold for the method and conditions named. In cells and extracts the contact can be indirect. Binding calls can cover weak binding; strength is not graded here. One block for each molecule: values may come before it.
